Experimental data taken from PubChem BioAssay AID2060903 (Molecular Pharmacology Branch, DTP, NCI, 2025).
This continues a long series; more values of the same kind are listed elsewhere.

System: 377384-186-R-J1-PDC complex spheroid viability
Test: Anticancer human tumor 377384-186-R-J1-PDC patient-derived pancreatic carcinoma cell line growth inhibition [RAS]
Conditions: active compounds read low; active means viability on the fitted dose curve at most 10% of control; inactive means the rest
From the text: RAS pathway inhibitors in Combinations in Complex Spheroids
A high-throughput screen of multi-cell type tumor spheroids was designed to identify active combinations of RAS pathway inhibitors and targeted small molecules. Complex spheroids include a stromal component modeled by human endothelial cells (HUVEC) and fibroblasts modeled by human mesenchymal stem cells (MSCs). The concentration ranges selected for each drug and investigational agent were based upon clinically achievable concentrations if the clinical Cmax of the agent was known.
Compounds. The drugs and investigational agents: abemaciclib (NSC768073), cobimetinib (NSC768068), divarasib (GDC6063, NSC841802), docetaxel (NSC628503), GDC-1971 (RLY-1971, NSC841576), gemcitabine (NSC613327), inavolisib (NSC800729), ipatasertib (NSC767898), KB-0742 (NSC834161), MRTX-1133 (NSC836407), osimertinib (NSC779217), RMC-4630 (NSC839698), RMC-6236 (NSC851965), RMC-6291 (NSC852671), Ro-3306 (NSC812927), sapanisertib (NSC764658), SN-38 (NSC673596), staurosporine (NSC755774), SY5609 (NSC837396), and tovorafenib (DAY101, NSC766906), were obtained from the National Cancer Institute (NCI) Developmental Therapeutics Program Chemical Repository. The FDA-approved anticancer drug set is available from the NCI Developmental Therapeutics Program. […] The stock solutions were prepared in dimethyl sulfoxide (DMSO, Sigma-Aldrich, St. Louis, MO, cat. D2650) at 800-fold the tested concentration and stored at -70 degrees C prior to their use. All drugs and investigational agents were tested over a range starting from a high concentration at or near the clinical Cmax and decreasing in half-log increments. If the clinical Cmax for an agent had not been determined, the highest concentration tested was 10 microM.
Cell Culture. All cells were maintained in an incubator at 37 degrees C and 5% CO2 with 95% humidity. The PDC lines were cultured according to standard operating procedures established by the NCI PDMR. All PDCs were thawed and cultured in Matrigel-coated flasks prepared with a working solution of 1X Ham's F-12 nutrient mix, without supplementation (Invitrogen, Waltham, MA, cat. 11765054), 100 U/mL penicillin-streptomycin (Invitrogen, cat. 15140122), and 2.5% Matrigel (Corning Inc., Corning, NY, cat. 354248) for the first three passages. The 362531-283-R-J2-PDC and 782815-120-R-J1-PDC lines were cultured in 6C/Colon 1B media, which includes advanced DMEM/F-12 (Thermo Fisher Scientific, cat. 12634028), 10 mM HEPES (Thermo Fisher Scientific, cat. 15630080), 1X GlutaMAX supplement (Thermo Fisher Scientific, cat. 35050061), 0.1 mg/mL primocin (InvivoGen, San Diego, CA, cat. ant-pm-2), 10% defined fetal bovine serum, heat inactivated (HyClone Laboratories Inc., Logan, UT, cat. SH30070.03HI), 50% L-WRN conditioned media (ATCC, cat. CRL-3276), 1.25 mM N-Acetyl-L-cysteine (Sigma-Aldrich, cat. A9165), 10 mM nicotinamide (Sigma-Aldrich, cat. N0636), 1X B-27 supplement (Thermo Fisher Scientific, cat. 17504044), 1X N-2 supplement (Thermo Fisher Scientific, cat. 17502048), 50 ng/mL human EGF (Thermo Fisher Scientific, cat. PHG0311), and 10 microM Y-27632 dihydrochloride (Tocris Bioscience, cat. 1254). The K12877-001-R-J1-PDC line was cultured in 6I media, which includes all 6C/Colon 1B media plus 10 ng/mL human FGF-10 (PeproTech, cat. 100-26), 1 ng/mL human FGF-2 (PeproTech, cat. 100-18B), 1 µM prostaglandin E2 (Tocris Bioscience, cat. 2296), […] hydrocortisone (Sigma-Aldrich, cat. H4001), and […] bovine insulin (Sigma-Aldrich, cat. I6634). The K86415-001-R-J1-PDC line was cultured in 6D media, which includes all 6C/Colon 1B media components minus the L-WRN conditioned media. The 485176-168-R4-J1-PDC was cultured in PANC media, which includes all 6C/Colon 1B media plus 100 ng/mL human FGF-10 (PeproTech, cat. 100-26), 500 nM SB-431542 (Selleckchem, cat. S1067), and 10 nM gastrin (Tocris Bioscience, cat. 3006). […]

Measured: viability, T/C
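Further: spheroids exposed to compounds for seven days before readout.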

C=CC(=O)N1CCN(c2nc(OCC3CCCN3C)nc3c(F)c(-c4nc(N)cc(C)c4C(F)(F)F)c(Cl)cc23)C(C)C1 (stereo not drawn)
inactive: compound 0.00316 µM, compound 0.01 µM 92.5% | compound 0.00316 µM, compound 0.0316 µM 96.9% | compound 0.00316 µM, compound 0.1 µM 97.3% | compound 0.00316 µM, compound 0.316 µM 83.2% | compound 0.00316 µM, compound 1 µM 85.4% | compound 0.00316 µM 88% | compound 0.01 µM, compound 0.00316 µM 99.9% | compound 0.01 µM 97%
